Measurements reported in PubChem BioAssay AID1259254 (NCATS, 2017).

Purpose: 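Finding genes that stop cells copying their DNA twice in one cycle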 (primary screen)
Cell system: human HCT116 colorectal cancer cells
Knock-down reagent: single siRNA against human genes
Time to read-out: 3 days
Measured: 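Imaged Hoechst DNA stain sorts each cell into a cycle phase by DNA amount; per plate, G2 fraction set to 0% for non-targeting and 100% for GMNN siRNA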
Direction: G2 robust z-score: higher = more G2 cells, more excess DNA replication
Rule for the call: 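An siRNA counts as active if its G2 robust z-score lies at least 5 MADs above the screen median; here such calls match roughly 38% of GMNN control or more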
Here is an unselected part of about 59,000 reagents. Of all reagents, about 1,550 (2.6%) got an active call. 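G2 share is only a proxy for re-replication; each gene was hit by three separate siRNAs, and active genes were retested.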 A number with no mark means an inactive call. Reagents against one gene are numbered here. Further read-outs or replicates are left out here. The record does not give: the amount of reagent.

GPR20 #1 → G2 robust z-score = 1.96
GPR20 #2 → G2 robust z-score = -1.18
GPR20 #3 → G2 robust z-score = -0.846
LMOD1 #1 → G2 robust z-score = 0.522
LMOD1 #2 → G2 robust z-score = -0.102
LMOD1 #3 → G2 robust z-score = 2.18

Reprinted from above for reference:
GPR20 #2 → G2 robust z-score = -1.18
GPR20 #3 → G2 robust z-score = -0.846

The list goes on.
GPRASP1 #1 → G2 robust z-score = -0.917
GPRASP1 #2 → G2 robust z-score = -0.421
GPRASP1 #3 → G2 robust z-score = 0.926
ACTR3C #1 → G2 robust z-score = -0.18
ACTR3C #2 → G2 robust z-score = -0.797
ACTR3C #3 → G2 robust z-score = 0.213
